In publication PMC8964759, “Exploring a blue-light-sensing transcription factor to double the peak productivity of oil in Nannochloropsis oceanica”:

Target: T1, MBP-NobZIP77 (Nannochloropsis oceanica) (UniProt A0A8F2IEU3)
T1 sequence (looked up, limits assumed): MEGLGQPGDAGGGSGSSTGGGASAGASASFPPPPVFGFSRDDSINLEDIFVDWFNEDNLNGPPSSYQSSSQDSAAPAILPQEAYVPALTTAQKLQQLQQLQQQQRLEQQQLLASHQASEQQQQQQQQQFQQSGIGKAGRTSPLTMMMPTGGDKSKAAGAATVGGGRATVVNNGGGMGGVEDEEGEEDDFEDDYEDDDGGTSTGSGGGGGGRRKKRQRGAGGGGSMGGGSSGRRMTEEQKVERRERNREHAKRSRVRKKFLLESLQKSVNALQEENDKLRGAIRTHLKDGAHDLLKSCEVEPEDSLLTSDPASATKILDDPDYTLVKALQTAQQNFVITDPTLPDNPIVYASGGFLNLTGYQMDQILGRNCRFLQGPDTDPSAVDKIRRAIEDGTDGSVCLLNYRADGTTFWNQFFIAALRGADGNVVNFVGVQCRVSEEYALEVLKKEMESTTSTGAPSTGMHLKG
Experiment: EMSA
Details: lowest protein concentration with visible shift (not a Kd), 5 nM probe, LightShift Chemiluminescent EMSA kit binding buffer (composition, salt and pH not stated), 30 min, recombinant protein, protein details: MBP (pMAL-p4X), label: 5' biotin

Sequence: TATGCTCACGTGCGCACACGTACCCCACTATGCTCACGTGCGCACACGTACCCCAC (double strand) [pNoDGAT2B probe (g6725)]
- binding signal (continuous blue light (450 nm)): 1.5 mM
- binding signal (continuous white light): 0.75 mM

Construct, isoform or probe ends are uncertain for at least one entry. Whether high values mean tight binding is not given here for every scale. Tags and fusion partners may be left off the protein sequences shown.
